From patent US20220348674A1
No constants are given. Whether binding was seen depends on the method and setting. Some entries that bind do so weakly or less than the wild type.

Amino acid sequences for entries named in this document (tags omitted). A change or cut given only in a name is not applied to a line headed by its entry. Residues count along the entry.
UniProt P25942: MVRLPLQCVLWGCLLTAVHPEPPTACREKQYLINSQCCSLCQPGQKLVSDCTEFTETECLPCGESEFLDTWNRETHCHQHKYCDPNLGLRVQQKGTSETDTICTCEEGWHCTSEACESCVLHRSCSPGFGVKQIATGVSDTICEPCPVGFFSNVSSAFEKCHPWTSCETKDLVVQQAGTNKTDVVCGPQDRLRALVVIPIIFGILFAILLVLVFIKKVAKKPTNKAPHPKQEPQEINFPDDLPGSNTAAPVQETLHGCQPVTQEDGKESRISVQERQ
cell surface human CD40 on HEK-CD40 cells: residues 21-277 of P25942
purified recombinant human CD40 protein: residues 21-193 of P25942

Columns and labels:
[1] = target: cell surface human CD40 on HEK-CD40 cells (human) (UniProt P25942); assay: flow cytometry on HEK-CD40 cells
[2] = target: purified recombinant human CD40 protein (human) (UniProt P25942); assay: Octet (BLI), recombinant CD40
[3] = target: cell surface human CD40 on HEK-CD40 cells (human) (UniProt P25942); assay: flow cytometry on HEK-CD40 cells (legend of FIG. 2)

Measured: binding

B1: 3B5, humanized anti-CD40 mAb, IgG1 isotype (antibody, V domains shown)
VH: EVQLVESGGGLIQPGGSLRLSCAVSGFSLSTYAVSWVRQAPGKGLEWVGIIDSGGGTAYASWVKGRFTISRDNSKNTLYLQMNSLRAEDTAVYYCARGVTFFGLWGQGTLVTVSS
VL: DIVMTQSPSTLSASVGDRVTITCQASQSISNYLSWYQQKPGKAPKLLIYRASDLASGVPSRFSGSGSGTEFTLTISSLQPDDFATYYCQAYYYSGGGSYDYAFGGGTKVEIK
binds: [1] | [2] | [3]
